# In patent US20240075050A1, “Methods and Compositions for Treating Leucine Rich Repeat Kinase 2 (LRRK2)-Associated Disorder or Condition” (University of Connecticut, priority 2022, published 2024):
# Several values for one entry are separate records, joined by “and”; a condition that tells them apart may be missing. Equal entries are not always repeated.
# Tested on: ATIC KO cells
# Experiment: AICAR/ZMP in WT and ATIC knockout cells measured by UPLC
# Type: cell-based, human
# Settings: for AICAR/ZMP concentration: UPLC
compound,measurement,setting,value
"NC(=O)c1ncn([C@@H]2O[C@H](COP(=O)(O)O)[C@@H](O)[C@H]2O)c1N [AICAR/ZMP, 5-aminoimidazole-4-carboxamide ribonucleotide]",AICAR/ZMP concentration,ATIC KO cells,1557 ng/mL
same,AICAR/ZMP Average,"ATIC knockout cells, average of KO-1 to KO-3, UPLC",1557.21 ng/mL
same,AICAR/ZMP,"ATIC knockout cells, samples KO-1, KO-2, KO-3, UPLC",1595.86 ng/mL and 1585.20 ng/mL and 1490.57 ng/mL
same,AICAR/ZMP concentration,WT cells,undetectable
